Results published in paper PMC8443706, “Functionally diverse heteromeric traps for ligands of the transforming growth factor-β superfamily” (Scientific Reports, 2021).
Results are given in words; binding and its absence hold for the method and conditions named. For some assays here: Sequences can lack the tags named with a protein.

Chains of the proteins cited; added tags and fusions are not shown. Residues count along the entry.
UniProt P36896, residues 24-126: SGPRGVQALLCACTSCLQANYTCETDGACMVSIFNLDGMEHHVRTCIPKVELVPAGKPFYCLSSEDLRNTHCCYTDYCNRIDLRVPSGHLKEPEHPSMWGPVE
UniProt O14793, residues 267-375: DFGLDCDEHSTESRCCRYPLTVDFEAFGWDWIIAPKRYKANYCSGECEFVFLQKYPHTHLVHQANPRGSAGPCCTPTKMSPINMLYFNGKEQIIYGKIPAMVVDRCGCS

T1: ALK7-Fc:ALK7-Fc homodimer (human ALK7 ECD fused to human IgG1 Fc) (human) (UniProt Q8NER5)
T1 sequence: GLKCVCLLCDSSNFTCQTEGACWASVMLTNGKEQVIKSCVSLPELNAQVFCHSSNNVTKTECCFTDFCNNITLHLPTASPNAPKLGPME

T2: ALK3-Fc:ALK3-Fc homodimer (human ALK3 ECD fused to human IgG1 Fc) (human), P36894
T2 chain: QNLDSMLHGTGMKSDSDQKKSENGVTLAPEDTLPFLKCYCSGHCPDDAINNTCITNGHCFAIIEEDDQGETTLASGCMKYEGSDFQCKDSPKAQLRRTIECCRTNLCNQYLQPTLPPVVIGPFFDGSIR

T3: IIB-Fc:ALK7-Fc heterodimer (human ActRIIB ECD-Fc paired with human ALK7 ECD-Fc) (human) (UniProt Q13705+Q8NER5)
T3 sequence 1: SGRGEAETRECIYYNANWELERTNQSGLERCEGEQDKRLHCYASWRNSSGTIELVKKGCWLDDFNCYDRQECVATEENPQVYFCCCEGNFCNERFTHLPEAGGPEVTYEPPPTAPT
T3 sequence 2: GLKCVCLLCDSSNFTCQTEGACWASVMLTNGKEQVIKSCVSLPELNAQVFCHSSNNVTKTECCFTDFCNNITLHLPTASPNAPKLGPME


Columns and labels:
Test in all cases: SPR; Biacore 8K, 37 °C; Fc-fusion receptor dimers captured by anti-human Fc antibody on a CM5 chip (100-150 RU); ligands injected in two-fold dilution series (300 s association, 600 s dissociation); HBS-EP+ supplemented with 350 mM NaCl and 0.5 mg/mL BSA; 1:1 Langmuir model with a term for mass transport; both purified
[1] = target: ALK3-Fc:ALK3-Fc homodimer (human ALK3 ECD fused to human IgG1 Fc) (human) (UniProt P36894)
[2] = target: T1, ALK7-Fc:ALK7-Fc homodimer (human ALK7 ECD fused to human IgG1 Fc) (human)
[3] = target: ALK4-Fc:ALK4-Fc homodimer (R&D Systems Cat #808-AR-100) (human) (UniProt P36896)
[4] = target: T2, ALK3-Fc:ALK3-Fc homodimer (human ALK3 …); details: remark: other sources report otherwise
[5] = target: IIB-Fc:ALK4-Fc heterodimer (human ActRIIB ECD-Fc paired with human ALK4 ECD-Fc) (human) (UniProt Q13705+P36896)
[6] = target: T3, IIB-Fc:ALK7-Fc heterodimer (human ActRIIB ECD-Fc paired with human ALK7 ECD-Fc) (human)

Molecule | binding [1] | binding [2] | binding [3] | binding [4] | binding [5] | binding [6]
BMP7 (ligand, human, UniProt P18075 293-431, looked up, source: bought: R&D Systems) STGSKQRSQNRSKTPKNQEALRMANVAENSSSDQRQACKKHELYVSFRDLGWQDWIIAPEGYAAYYCEGECAFPLNSYMNATNHAIVQTLVHFINPETVPKPCCAPTQLNAISVLYFDDSSNVILKKYRNMVVRACGCH | – | no binding | no binding | no binding | – | –
BMP10 (ligand, human, UniProt O95393 317-424, looked up, source: bought: R&D Systems) NAKGNYCKRTPLYIDFKEIGWDSWIIAPPGYEAYECRGVCNYPLAEHLTPTKHAIIQALVHLKNSQKASKACCVPTKLEPISILYLDKGVVTYKFKYEGMAVSECGCR | no binding | no binding | no binding | – | – | –
BMP9 (ligand, human, UniProt Q9UK05 320-429, looked up, source: generated in house) SAGAGSHCQKTSLRVNFEDIGWDSWIIAPKEYEAYECKGGCFFPLADDVTPTKHAIVQTLVHLKFPTKVGKACCVPTKLSPISVLYKDDMGVPTLKYHYEGMSVAECGCR | no binding | no binding | no binding | – | – | –
BMP4 (ligand, human, UniProt P12644 293-408, looked up, source: bought: R&D Systems) SPKHHSQRARKKNKNCRRHSLYVDFSDVGWNDWIVAPPGYQAFYCHGDCPFPLADHLNSTNHAIVQTLVNSVNSSIPKACCVPTELSAISMLYLDEYDKVVLKNYQEMVVEGCGCR | – | no binding | no binding | – | no binding | no binding
BMP6 (ligand, human, UniProt P22004 375-513, looked up, source: bought: R&D Systems) SASSRRRQQSRNRSTQSQDVARVSSASDYNSSELKTACRKHELYVSFQDLGWQDWIIAPKGYAANYCDGECSFPLNAHMNATNHAIVQTLVHLMNPEYVPKPCCAPTKLNAISVLYFDDNSNVILKKYRNMVVRACGCH | – | no binding | no binding | – | – | –

Next, values leading:

binding [1] | binding [2] | binding [3] | binding [4] | binding [5] | binding [6] | Molecule
no binding | no binding | – | – | – | – | growth differentiation factor 8 (GDF8, or myostatin) (from UniProt O14793 267-375) (ligand)
no binding | no binding | – | – | – | – | GDF11 (ligand, human, UniProt O95390 299-407, looked up, source: generated in house) NLGLDCDEHSSESRCCRYPLTVDFEAFGWDWIIAPKRYKANYCSGQCEYMFMQKYPHTHLVQQANPRGSAGPCCTPTKMSPINMLYFNDKQQIIYGKIPGMVVDRCGCS
no binding | no binding | no binding | – | – | – | activin B (ligand, human, UniProt P09529 293-407, looked up, source: generated in house) GLECDGRTNLCCRQQFFIDFRLIGWNDWIIAPTGYYGNYCEGSCPAYLAGVPGSASSFHTAVVNQYRMRGLNPGTVNSCCIPTKLSTMSMLYFDDEYNIVKRDVPNMIVEECGCA
no binding | no binding | no binding | – | – | – | GDF3 (ligand, human, UniProt Q9NR23 251-364, looked up, source: bought: R&D Systems) AAIPVPKLSCKNLCHRHQLFINFRDLGWHKWIIAPKGFMANYCHGECPFSLTISLNSSNYAFMQALMHAVDPEIPQAVCIPTKLSPISMLYQDNNDNVILRHYEDMVVDECGCG
– | no binding | – | – | – | – | activin A (ligand, human, UniProt P08476 311-426, looked up, source: generated in house) GLECDGKVNICCKKQFFVSFKDIGWNDWIIAPSGYHANYCEGECPSHIAGTSGSSLSFHSTVINHYRMRGHSPFANLKSCCVPTKLRPMSMLYYDDGQNIIKKDIQNMIVEECGCS
